Our source for the binding values is paper PMC3836487.

Sequences of proteins named here, by UniProt entry; tags and fusion partners are left off. A change or cut given only in a name is not applied to a line headed by its entry.
UniProt B8GXP6: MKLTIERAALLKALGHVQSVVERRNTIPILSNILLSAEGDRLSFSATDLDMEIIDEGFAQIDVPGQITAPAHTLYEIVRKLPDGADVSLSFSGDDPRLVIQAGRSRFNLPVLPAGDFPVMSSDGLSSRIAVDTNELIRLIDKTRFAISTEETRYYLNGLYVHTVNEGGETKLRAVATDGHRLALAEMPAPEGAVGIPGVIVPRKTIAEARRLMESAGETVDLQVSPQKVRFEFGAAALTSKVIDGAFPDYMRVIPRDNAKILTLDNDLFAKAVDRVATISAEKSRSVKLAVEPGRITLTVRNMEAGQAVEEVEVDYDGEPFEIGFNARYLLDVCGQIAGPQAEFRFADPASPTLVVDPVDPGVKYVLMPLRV
UniProt A0A0H3C884: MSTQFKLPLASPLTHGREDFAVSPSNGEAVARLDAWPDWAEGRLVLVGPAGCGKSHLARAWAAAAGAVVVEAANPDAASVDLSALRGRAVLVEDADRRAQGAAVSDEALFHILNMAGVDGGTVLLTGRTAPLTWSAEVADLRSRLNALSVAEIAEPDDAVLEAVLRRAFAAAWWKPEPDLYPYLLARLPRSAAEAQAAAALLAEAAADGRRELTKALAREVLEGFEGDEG

The target of this test is DnaN–CFP (C. crescentus) (UniProt B8GXP6). As to the kind of experiment: FRET or BRET; acceptor photobleaching FRET in live C. crescentus cells on 1 % agarose pads; YFP (acceptor) bleached for 20 s at 532 nm, increase of CFP (donor) emission recorded; cells grown in M2G, 0.3 % xylose for 1 h; apparent FRET efficiency, above 0.5 % taken as an interaction, above 1 % as a strong one.

No constants are given. Whether binding was seen depends on the method and setting. Binding seen in cells or lysates may run through a third protein. Binding calls can cover weak binding; strength is not graded here.

As for YFP–HdaA (from UniProt A0A0H3C884), the binding entry is “binds”.
